Patent publication US20180127681A1, “GLYCOSYLATED AROMA- AND FRAGRANCE PRECURSORS AND FRAGRANCE PRODUCTS THAT CAN BE ACTIVATED” (Technische University Muenchen, priority 2015, published 2018)

Assay: Orthonasal sensory triangle test, bread with and without geranyl glucoside
Settings: 18 panelists, standard yeast dough bread, 100 ppm
Protocol: In order to test the influence of the amount of geraniol released in the baking test on the total aroma of the breads and its impression on the consumer an orthonasalic sensory test was carried out. In a triangle test with untrained panelists breads based on standard yeast dough with and without addition of GG were tested for a perceivable difference.
Bread made of standard yeast dough was tested analogous to the amount of 100 ppm geraniol (corresponds to 1 mg/10 g) used until now in raw bread dough and its difference to a blind sample. As sample dough blanks of 50 g flour each based on standard yeast dough (baking test 3—standard yeast dough) were used (see FIG. 8, picture A4) A blind sample A (flour, salt, sugar, fat, yeast, L-ascorbic acid and water) and a positive control B (additionally geranyl glucoside) were used. Several process steps were carried out according to standardized specifications, separate for each of the two blanks.
For the blind sample A 94.9 g well-mixed flour were weighed into a glass vessel. 1.0 g NaCl, 0.5 g sucrose and 0.5 g palm fat were added and the mixture was put in the kneader. […]
Each panelist carried out two tests following each other, first for the sensory test of the crust, then for the crumb. […] Following the test all singular results were brought together and evaluated statistically. […]

Structure (SMILES): CC(C)=CCC/C(C)=C/CO[C@@H]1O[C@H](CO)[C@@H](O)[C@H](O)[C@H]1O [geranyl glucoside]
- correct answers in triangle test (crumb): 12
- correct answers in triangle test (crust): 13
